Source: article PMC7099082
No constants are given. Whether binding was seen depends on the method and setting. Binding calls can cover weak binding; strength is not graded here. Tags and fused reporters may be left off the sequences shown.

Legend:
[1] = biological target: T1, SnRK1α1/AKIN10 (Snf1-Related Kinase1 α1 catalytic subunit), B42 activation domain fusion (Arabidopsis thaliana) (UniProt Q38997); experiment: two-hybrid; LexA system by mating; SnRK1 subunits fused to the B42 activation domain (EGY48), library clones fused to the LexA DNA binding domain (RFY206); LEU and LacZ reporters, two plates per reporter; primary screen and independent retest of high confidence interactions
T1 sequence: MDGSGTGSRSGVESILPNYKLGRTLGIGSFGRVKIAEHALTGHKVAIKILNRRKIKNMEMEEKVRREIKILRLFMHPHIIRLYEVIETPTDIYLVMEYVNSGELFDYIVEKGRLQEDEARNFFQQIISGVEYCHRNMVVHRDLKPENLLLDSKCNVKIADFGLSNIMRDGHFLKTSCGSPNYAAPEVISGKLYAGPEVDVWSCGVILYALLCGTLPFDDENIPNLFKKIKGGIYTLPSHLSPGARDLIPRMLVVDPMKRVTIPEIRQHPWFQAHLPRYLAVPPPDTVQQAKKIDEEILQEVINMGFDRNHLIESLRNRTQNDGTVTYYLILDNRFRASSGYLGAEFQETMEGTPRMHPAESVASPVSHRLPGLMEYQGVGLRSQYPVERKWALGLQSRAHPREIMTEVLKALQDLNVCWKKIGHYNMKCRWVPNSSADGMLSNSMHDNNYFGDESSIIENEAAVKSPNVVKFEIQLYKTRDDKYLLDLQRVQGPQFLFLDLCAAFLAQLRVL

[2] = biological target: T2, SnRK1α2/AKIN11 (Snf1-Related Kinase1 α2 catalytic subunit), B42 activation domain fusion (Arabidopsis thaliana) (UniProt P92958); experiment: as above
T2 sequence: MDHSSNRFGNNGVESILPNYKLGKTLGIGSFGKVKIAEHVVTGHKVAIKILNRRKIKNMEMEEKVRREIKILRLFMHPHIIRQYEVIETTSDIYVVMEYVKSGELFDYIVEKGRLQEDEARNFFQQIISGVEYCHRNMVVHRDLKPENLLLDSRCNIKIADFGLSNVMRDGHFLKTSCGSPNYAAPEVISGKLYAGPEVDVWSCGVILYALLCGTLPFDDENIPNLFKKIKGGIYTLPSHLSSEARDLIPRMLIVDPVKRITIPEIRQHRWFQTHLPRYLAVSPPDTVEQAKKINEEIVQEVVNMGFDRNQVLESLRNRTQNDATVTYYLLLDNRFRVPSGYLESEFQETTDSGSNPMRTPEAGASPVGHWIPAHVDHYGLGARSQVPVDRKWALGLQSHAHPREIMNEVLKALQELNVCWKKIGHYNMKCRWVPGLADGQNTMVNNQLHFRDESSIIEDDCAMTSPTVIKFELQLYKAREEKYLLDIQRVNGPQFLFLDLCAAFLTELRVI

| binding [1] | binding [2] | Substance |
| --- | --- | --- |
| binds | binds | AIB1, LexA DNA binding domain fusion (Arabidopsis thaliana) |
| binds | binds | DIG1/AITR2, LexA DNA binding domain fusion (Arabidopsis thaliana) |
| binds | binds | DUF828/FORKED-LIKE7 (FL7), LexA DNA binding domain fusion (Arabidopsis thaliana) |
| binds | binds | HB6, LexA DNA binding domain fusion (Arabidopsis thaliana) |
